Data set [1] concerns the target T1, DnaT84-179 (Escherichia coli K12) (UniProt P0A8J2).
T1 sequence (looked up): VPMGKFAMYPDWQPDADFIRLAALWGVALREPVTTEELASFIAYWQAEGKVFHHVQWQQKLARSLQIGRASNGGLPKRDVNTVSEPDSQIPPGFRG
Put plainly: EMSA. Conditions: 20-160 uM protein, 6 uM DNA; Buffer A: 20 mM Tris-HCl pH 7.5, 40 mM NaCl, 5% v/v glycerol, 20 C; FPA 200 nM 5'-FAM DNA, Hill fit; EMSA 30 min at 20 C, gels in 0.5x TBE at 4 C; recombinant protein; residues 84-179; protein details: His-MBP removed by TEV; single-stranded DNA. (A gel shift assay detects complexes by their altered migration in electrophoresis.)

Data set [2] has as its target T2, DnaT (wt, full length) (Escherichia coli K12) (UniProt P0A8J2).
T2 sequence (looked up): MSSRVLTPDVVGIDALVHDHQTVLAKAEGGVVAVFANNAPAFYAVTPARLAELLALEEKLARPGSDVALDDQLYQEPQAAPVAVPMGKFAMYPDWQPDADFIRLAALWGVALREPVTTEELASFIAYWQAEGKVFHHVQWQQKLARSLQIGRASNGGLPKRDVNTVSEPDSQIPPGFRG
The data set can be described thus: EMSA. Conditions: 20-160 uM protein, 6 uM DNA; Buffer A: 20 mM Tris-HCl pH 7.5, 40 mM NaCl, 5% v/v glycerol, 20 C; FPA 200 nM 5'-FAM DNA, Hill fit; EMSA 30 min at 20 C, gels in 0.5x TBE at 4 C; recombinant protein; residues 1-179; protein details: His-MBP removed by TEV; single-stranded DNA.

In data set [3] the target is T2, DnaT (wt, full length) (Escherichia coli K12). The data set can be described thus: negative-stain EM. Conditions: short filaments about 30 nm; Buffer A: 20 mM Tris-HCl pH 7.5, 40 mM NaCl, 5% v/v glycerol, 20 C; FPA 200 nM 5'-FAM DNA, Hill fit; recombinant protein; residues 1-179; protein details: His-MBP removed by TEV; single-stranded DNA.

Construct, isoform or probe ends are uncertain for at least one entry. For part of these data: A weaker result is weaker than the reference pair of the same experiment. At least one verdict rests on a figure or table, not on a statement of the authors. Tags and fusion partners may be left off the protein sequences shown.

Turning to TTTTTTTTTTTTTTTTTTTTTTTTTTTTTT [dT30], the binding result in data set [1] is listed as “binds more weakly”; in data set [2], “binds”. Take “TTTTTTTTTTTTTTTTTTTTTTTTTTTTTTTTTTTTTTTTTTTTTTTTTT [dT50]”: the binding result in data set [3] is on record as “binds”.

Values taken from publication PMC4132743 (Nucleic Acids Research, 2014).
